Source: ChEMBL document CHEMBL3988442, “University of Dundee, Small-Polar-MMV Screening Library” (2021).

Mtb glucose medium: 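Growth of Mycobacterium tuberculosis over 3 days (7H9 medium with glucose and tyloxapol); the read-out is not stated. Compounds at 50 µM. The record gives no direction; compounds that gave an IC50 in retests scored well above the rest, so higher reads as more growth inhibition. Of about 69,000 compounds tested this way, about 760 (1.1%) reached 50% or more in at least one test.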
Mtb cholesterol medium: 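Growth of Mycobacterium tuberculosis over 4 days (cholesterol / DPPC medium with tyloxapol); the read-out is not stated. Concentration: 50 µM. Higher reads as more growth inhibition (inferred: compounds with an IC50 in retests scored well above the rest). About 69,000 compounds were tested under these conditions; 0.54% (about 370) showed 50% or more at least once.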

Values are the deposited “Percent Effect”, in %. The record does not define 0% and 100%; most values in the screen are far below 50% and negative numbers occur (in some assays of this library far below -100). This is an unselected part of the compounds tested. Two or more numbers in one place are separate tests of the same structure; such repeats can differ widely.

O=C(NCc1c(F)cccc1Cl)c1cc(CN2CCCC(O)C2)on1 (centres unmarked) read Mtb glucose medium: 28.62%; Mtb cholesterol medium: 4.096%.
CCOC(=O)[C@H]1CNC[C@H]1C(=O)OCC.Cl read Mtb glucose medium: -2.31% & 3.566%; Mtb cholesterol medium: -2.214%.
O=C(O)C(F)(F)F.[H][C@@]12CCN(CC3CC3)[C@@]1([H])CCN2C(=O)c1cccc(C#N)c1 read Mtb glucose medium: -27.38%; Mtb cholesterol medium: -16.4%.
COCC1CCN(CCOc2ccc(C#N)cc2OC)CC1 read Mtb glucose medium: -8.993% & -5.548%; Mtb cholesterol medium: -0.03665%.
CCN(C(c1cccnc1)c1ccc(F)c(F)c1)S(C)(=O)=O (centres unmarked) read Mtb glucose medium: -41.26% & 2.23%; Mtb cholesterol medium: -21.99%.
CC(=O)NC[C@H]1COCc2nc3c(C)cccc3n21 read Mtb glucose medium: 3.542% & -35.46%; Mtb cholesterol medium: -34.44%.
Cc1cncnc1C1CCN(C(=O)C2(C)CCCCN2C)CC1 (centres unmarked) read Mtb glucose medium: -0.9767%; Mtb cholesterol medium: -9.762% & -12.75%.
CCSCc1ccc(C(=O)N2CCCN(CC(N)=O)CC2)cc1 read Mtb glucose medium: -13.32%; Mtb cholesterol medium: -22.38% & -9.594%.
Cc1cc(CN(C)C(=O)CN2CCCC2=O)no1 read Mtb glucose medium: -24.4%; Mtb cholesterol medium: -27.85%.
Cc1n[nH]c(=O)c2c(NC(=O)CN3CCC(O)CC3)oc(C)c12 read Mtb glucose medium: -43.75%; Mtb cholesterol medium: -55.51%.
O=C(NC1CCc2c(ccc(=O)n2CC2CC2)C1)c1cscn1 (centres unmarked) read Mtb glucose medium: -27.73%; Mtb cholesterol medium: -15.52%.
CC(=O)N1CCC(c2ccnc(Nc3cncnc3)n2)CC1 read Mtb glucose medium: -2.829%; Mtb cholesterol medium: -4.672%.
Cc1cc(CNC(=O)CCc2ccc(S(N)(=O)=O)cc2)no1 read Mtb glucose medium: -1.803%; Mtb cholesterol medium: 1.797%.
Cc1c(NC(=O)NC2CCCC2)cccc1C(=O)N1CCSCC1 read Mtb glucose medium: -6.099%; Mtb cholesterol medium: -10.78%.
CSCCC(NC(=O)c1ccc2ccccc2n1)C(=O)NC(C)C (centres unmarked) read Mtb glucose medium: -37.57%; Mtb cholesterol medium: 1.243% & -6.5%.
CNc1ccnc(NCCC(=O)Nc2ccccc2C)n1 read Mtb glucose medium: -13.26%; Mtb cholesterol medium: 4.971%.
COc1ccc(CC(=O)N2CCN(c3nccn3C)CC2)cc1.Cl read Mtb glucose medium: -6.844%; Mtb cholesterol medium: -25.61%.
CNC(=O)NC(=O)CN1CCN(CC2CC2)c2ccccc21 read Mtb glucose medium: 2.116%; Mtb cholesterol medium: -8.71%.
c1cc(-c2n[nH]cc2-c2ccnc(N3CCCCCC3)n2)ccn1 read Mtb glucose medium: 21.22%; Mtb cholesterol medium: -12.84%.
Cc1c(C(=O)O)sc2nc(C(F)(F)F)ccc12 read Mtb glucose medium: 1.918%; Mtb cholesterol medium: -9.41%.
CN(Cc1cccc(F)c1)C(=O)CN1CCCC(Cn2cncn2)C1 (centres unmarked) read Mtb glucose medium: 2.49% & 2.12%; Mtb cholesterol medium: -4.469%.
O=C(NCCc1ccn(-c2ccccc2)n1)N1CCC1 read Mtb glucose medium: 9.609%; Mtb cholesterol medium: 7.57%.
COc1ccc(CNC(=O)NC(C)Cn2cccn2)cc1O (centres unmarked) read Mtb glucose medium: 22.98%; Mtb cholesterol medium: -0.00977%.
CCc1nc(Cn2cncc(Br)c2=O)no1 read Mtb glucose medium: -14.1%; Mtb cholesterol medium: -13.19%.
CC(C)OCCSCCn1nc2ccccn2c1=O read Mtb glucose medium: 11.81% & 3.1%; Mtb cholesterol medium: 5.206%.
CS(=O)(=O)N1CCOCC2(CN(Cc3ccc(F)cc3)CCO2)C1.O=C(O)C(F)(F)F (centres unmarked) read Mtb glucose medium: 4.062% & 23.52%; Mtb cholesterol medium: 1.339%.
CCN1CCN(c2ccc(CNC(=O)c3c(C)noc3C)cn2)CC1 read Mtb glucose medium: -24.53%; Mtb cholesterol medium: -24.21%.
O=C(CC1CCCO1)N1CCCN(c2cccnn2)CC1 (centres unmarked) read Mtb glucose medium: 21.41% & -3.049%; Mtb cholesterol medium: -3.601%.
Cc1cnc(NC(=O)N2CCC(N3CCCCC3=O)CC2)s1 read Mtb glucose medium: 15.65%; Mtb cholesterol medium: -9.143%.
O=C1COc2c(cccc2C(=O)N2CCCC(n3cccn3)C2)N1 (centres unmarked) read Mtb glucose medium: -30.05%; Mtb cholesterol medium: -30.53%.
CC(C)CN1CCC2(CC1)CN(C(=O)C(C)C)C2.O=C(O)C(F)(F)F read Mtb glucose medium: -7.073%; Mtb cholesterol medium: 10.71%.
Cc1nn(C)c(C)c1-c1ccc(=O)n(C(C)C(=O)NC2CCCC2)n1 (centres unmarked) read Mtb glucose medium: -6.199%; Mtb cholesterol medium: -13.41% & 5.786%.
CCn1cc(NC(=O)CN2CCC(Oc3ccccc3C)CC2)c(C)n1 read Mtb glucose medium: -6.966%; Mtb cholesterol medium: 6.853% & 17.89%.
Cc1c(Cl)cccc1N1CC(c2nnc(N)s2)CC1=O (centres unmarked) read Mtb glucose medium: 43.86%; Mtb cholesterol medium: 4.476%.
CCCN1CCC(c2nc3ccc(NCc4cccnc4)cn3n2)CC1.O=C(O)C(F)(F)F.O=C(O)C(F)(F)F.O=C(O)C(F)(F)F read Mtb glucose medium: -5.755%; Mtb cholesterol medium: -10%.
CC1CN(C)CCN1C(=O)c1ccn(-c2ccccc2)n1 (centres unmarked) read Mtb glucose medium: -44.9%; Mtb cholesterol medium: -33.95%.
Cc1ccsc1[C@@H]1CCN(C(=O)CCc2cc(O)no2)C[C@H]1O read Mtb glucose medium: 0.3735% & -6.569%; Mtb cholesterol medium: -15.66%.
Cc1ccc(N2CCOCC3(CCCN(c4ncc(F)cn4)C3)C2)nn1 (centres unmarked) read Mtb glucose medium: 10.87%; Mtb cholesterol medium: 11.66%.
c1nc(NCC2(N3CCOCC3)CCSC2)c2sccc2n1 (centres unmarked) read Mtb glucose medium: 1.694% & 22.03%; Mtb cholesterol medium: -0.2522%.
CC(C)c1cc(C(=O)NCCc2nc(-c3ccncc3)n[nH]2)[nH]n1 read Mtb glucose medium: 8.837%; Mtb cholesterol medium: -12.08% & 41.69%.
CC(C)N1CCC(c2nccnc2Nc2cnccn2)CC1 read Mtb glucose medium: 6.253%; Mtb cholesterol medium: 8.779%.

2 of the entries, repeated:

compound	Mtb glucose medium	Mtb cholesterol medium
Cc1ccsc1[C@@H]1CCN(C(=O)CCc2cc(O)no2)C[C@H]1O	0.3735 & -6.569	-15.66
Cc1cc(CN(C)C(=O)CN2CCCC2=O)no1	-24.4	-27.85